Consider one substance from paper PMC8700327.

Sequences of proteins named here, by UniProt entry; tags and fusion partners are left off.
UniProt Q86YP4: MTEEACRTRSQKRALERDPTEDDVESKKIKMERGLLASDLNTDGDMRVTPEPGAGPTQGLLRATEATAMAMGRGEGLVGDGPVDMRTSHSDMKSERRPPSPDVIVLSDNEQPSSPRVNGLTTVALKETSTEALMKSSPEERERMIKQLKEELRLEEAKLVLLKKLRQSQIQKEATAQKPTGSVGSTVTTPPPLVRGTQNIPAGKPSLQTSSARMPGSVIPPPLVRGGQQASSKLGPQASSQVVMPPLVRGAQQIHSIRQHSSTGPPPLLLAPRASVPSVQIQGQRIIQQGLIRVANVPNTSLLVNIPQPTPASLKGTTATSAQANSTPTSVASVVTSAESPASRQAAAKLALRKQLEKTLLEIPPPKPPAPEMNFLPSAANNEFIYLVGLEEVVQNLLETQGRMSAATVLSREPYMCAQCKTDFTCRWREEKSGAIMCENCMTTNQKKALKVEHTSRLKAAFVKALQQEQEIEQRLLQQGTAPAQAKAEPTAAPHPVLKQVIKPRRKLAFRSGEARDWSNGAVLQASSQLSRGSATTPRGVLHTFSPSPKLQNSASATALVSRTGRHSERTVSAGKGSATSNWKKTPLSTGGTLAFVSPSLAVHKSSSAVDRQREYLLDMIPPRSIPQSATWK

The target of this experiment is Flag-p66α (GATA zinc finger domain-containing protein 2A) (UniProt Q86YP4). The experiment in a line: affinity purification with mass spectrometry; lysate of HEK-293T cells stably expressing Flag-p66α; anti-Flag M2 agarose beads; washed with BC500 (500 mM KCl, 0.2% NP-40); eluted with Flag peptide; proteins between 40 and 55 kDa cut from the gel and identified by mass spectrometry.

Results are given in words; binding and its absence hold for the method and conditions named. In cells and extracts the contact can be indirect. A yes stands for co-enrichment or nearness to the bait. Other partners may have been found.

Consider “endogenous p53 (from UniProt P04637 1-393)”, for which the binding result is “binds”.
